Source: publication PMC4520498
These are yes or no findings as the source states them, for the method shown. Binding seen in cells or lysates may run through a third protein. Binding can be weak; no strength is given.

Target: TNF receptor-I (human (endogenous in peripheral blood T cells))
Assay: co-IP; 250 ug lysate of human T cells treated with CCF52 gangliosides (15 ug/ml; 6, 12, 24 and 48 hrs) incubated with mouse monoclonal anti-TNFRI antibody (6 ug), protein A beads, washed with RIPA buffer; Western blot for FADD, TRADD and TNFRI

B1: TNF receptor associated death domain (TRADD) (protein, UniProt Q15628 1-312)
chain: MAAGQNGHEEWVGSAYLFVESSLDKVVLSDAYAHPQQKVAVYRALQAALAESGGSPDVLQMLKIHRSDPQLIVQLRFCGRQPCGRFLRAYREGALRAALQRSLAAALAQHSVPLQLELRAGAERLDALLADEERCLSCILAQQPDRLRDEELAELEDALRNLKCGSGARGGDGEVASAPLQPPVPSLSEVKPPPPPPPAQTFLFQGQPVVNRPLSLKDQQTFARSVGLKWRKVGRSLQRGCRALRDPALDSLAYEYEREGLYEQAFQLLRRFVQAEGRRATLQRLVEALEENELTSLAEDLLGLTDPNGGLA
- binding: binds
